Results are given in words; binding and its absence hold for the method and conditions named. Binding seen in cells or lysates may run through a third protein. A yes stands for co-enrichment or nearness to the bait. Other partners may have been found.
B1: Ncln (protein, UniProt Q8VCM8 43-563)
chain: AHEFTVYRMQQYDLQGQPYGTRNAVLNTEARTVDADVLSRRCVLMRLLDFSYEHYQKALRQSAGAVVIILPRAMAAVPQDVVRQFMEIEPEMLAMETVVPVYFAVEDEALLSIYEQTQAASASQGSASAAEVLLHTATANGFQMVTSGAQSQAVSDWLITSVEGRLTGLGGEDLPTIVIVAHYDAFGVAPWLSLGADSNGSGISVLLELARLFSRLYTYKRTHAAYNLLFFASGGGKFNYQGTKRWLEDSLDHTDSSLLQDNVAFVLCLDTVGRGSHLRLHVSKPPREGTLQHAFLRELETVAAHQFPDVSFSMVHKKINLADDVLAWEHERFAIRRLPAFTLSHLESHRAGPRSSIMDVRSRVDSKTLTRNTRIIAEALTRVIYNLTEKGTPPDMPVFTEQMQVQEEQIDSVMDWLTNQPRAAQLLDKDGTFLSTLEHFLSRYLKDVRQHHVKADKRDPEFVFYDQLKQVMNAYRVKPAIFDLLLALCIGAYLGMAYTAVQHFHVLYKTVQRLLLKAKAQ
B2: Hacd3 (protein, UniProt Q8K2C9 1-362)
chain: METQVLTPHVYWAQRHRELYLRVELSDVQNPAISITDNVLHFKAQGHGAKGDNVYEFHLEFLDLVKPEPAYRLTQRQVNITVQKKGSHWWERLTKQEKRPLFLAPDFDRWLDESDAEMELRAKEEERLNKLRLEREGSPETLTNLKKGYLFMYNLVQLLGFSWIFVNLTVRFFILGKESFYDTFHNVADMMYFCQMLALVETLNAAIGVTSTPVLPALIQFLGRNFILFLVFGTMEEMQNKAVVFFVFYSWSAIEIFRYPFYMLSCIDMDWKVLTWLRYTMWIPLYPLGCLSEAVAVIQSIPVFNESGRFSFTLPYPVKMKVRFSFFLQVYLVMLFLGLYINFRHLYKQRRRRYGQKKKKLH
B3: Slc25a5 (protein, UniProt P51881 1-298)
chain: MTDAAVSFAKDFLAGGVAAAISKTAVAPIERVKLLLQVQHASKQITADKQYKGIIDCVVRIPKEQGVLSFWRGNLANVIRYFPTQALNFAFKDKYKQIFLGGVDKRTQFWRYFAGNLASGGAAGATSLCFVYPLDFARTRLAADVGKAGAEREFKGLGDCLVKIYKSDGIKGLYQGFNVSVQGIIIYRAAYFGIYDTAKGMLPDPKNTHIFISWMIAQSVTAVAGLTSYPFDTVRRRMMMQSGRKGTDIMYTGTLDCWRKIARDEGSKAFFKGAWSNVLRGMGGAFVLVLYDEIKKYT
B4: Slc25a4 (protein, UniProt P48962 1-298)
chain: MGDQALSFLKDFLAGGIAAAVSKTAVAPIERVKLLLQVQHASKQISAEKQYKGIIDCVVRIPKEQGFLSFWRGNLANVIRYFPTQALNFAFKDKYKQIFLGGVDRHKQFWRYFAGNLASGGAAGATSLCFVYPLDFARTRLAADVGKGSSQREFNGLGDCLTKIFKSDGLKGLYQGFSVSVQGIIIYRAAYFGVYDTAKGMLPDPKNVHIIVSWMIAQSVTAVAGLVSYPFDTVRRRMMMQSGRKGADIMYTGTLDCWRKIAKDEGANAFFKGAWSNVLRGMGGAFVLVLYDEIKKYV
B5: Hsd17b12 (protein, UniProt O70503 1-312)
chain: MECAPPAAGFLYWVGASTIAYLALRASYSLFRAFQVWCVGNEALVGPRLGEWAVVTGGTDGIGKAYAEELAKRGMKIVLISRSQDKLNQVSNNIKEKFNVETRTIAVDFSLDDIYDKIKTGLSGLEIGVLVNNVGMSYEYPEYFLEIPDLDNTIKKLININVLSVCKVTRLVLPGMVERSKGVILNISSASGMLPVPLLTIYSATKAFVDFFSQCLHEEYKSKGIFVQSVMPYLVATKLAKIQKPTLDKPSAETFVKSAIKTVGLQTRTTGYVIHSLMGSINSIMPRWMYFKIIMGFSKSLRNRYLKKRKKN
B6: Mars (protein, UniProt Q68FL6 1-902)
chain: MRLFVSEGSPGSLPVLAAAARARGRAELLISTVGPEECVVPFLTRPKVPVLQLDSGNYLFSASAICRYFFLLCGWEQDDLTNQWLEWEATELQPVLSAALHCLVVQGKKGEDILGPLRRVLTHIDHSLSRQNCPFLAGDTESLADIVLWGALYPLLQDPAYLPEELGALQSWFQTLSTQEPCQRAAETVLKQQGVLALRLYLQKQPQPQPPPPEGRTVSNELEEEELATLSEEDIVTAVAAWEKGLESLPPLKLQQHPVLPVPGERNVLITSALPYVNNVPHLGNIIGCVLSADVFARYCRLRQWNTLYLCGTDEYGTATETKAMEEGLTPREICDKYHAIHADIYRWFGISFDTFGRTTTPQQTKITQDIFQRLLTRGFVLRDTVEQLRCERCARFLADRFVEGVCPFCGYEEARGDQCDRCGKLINAIELKKPQCKICRSCPVVRSSQHLFLDLPKLEKRLEDWLGKTVPGSDWTPNARFIIRSWLRDGLKPRCITRDLKWGTPVPLEGFEDKVFYVWFDATIGYVSITANYTDQWEKWWKNPEQVDLYQFMAKDNVPFHGLVFPCSVLGAEDNYTLVKHIIATEYLNYEDGKFSKSRGIGVFGDMAKDTGIPADIWRFYLLYIRPEGQDSAFSWTDLLIKNNSELLNNLGNFINRAGMFVSKFFGGCVPEMALTPDDRRLVAHVSWELQHYHQLLEKVRIRDALRSILTISRHGNQYIQVNEPWKRIKGGEMDRQRAGTVTGMAVNMAALLSVMLQPYMPTVSSTIQTQLQLPPAACRILATSFICTLPAGHRIGTVSPLFQKLENDQIENLRQRFGGGQAKGSPKPAAVEAVTAAGSQHIQTLTDEVTKQGNVVRELKAQKADKNQVAAEVAKLLDLKKQLALAEGKPIETPKGKKKK
B7: Smpd4 (protein, UniProt Q6ZPR5 1-823)
chain: MAFPHLQQPSFLLASLKADSINKPFAQRCQDLVKVIEDFPAKELHAVFPWLVESIFGSLDGVLVGWNLRCLQGRVNPVEYSTAMEFLDPSGPMMKLVYKLQAEDYNFDFPVSCLPGPVKASIQENVLPDSPLYHNKVQFPPTGGLGLNLALNPFEYYMFYFALSLISQKPMSMTLHVRTSDCAYFTLVDRYLSWFLPTEGSVPPPLCSSPGGSSPSPAPRTPAMPFASYGLHTSLLKRHISHQTSVNADPASHEIWRSETLLQVFVEMWLHHYSLEMYQKMQSPHAKLEVLHYRLTVSSALHSPAQPSLQALHAYQESFTPTEEHVLVVRLLLKHLHAFANSLKPDQASPSAHSHATSPLEEFKRAAVPRFVQQKLYVFLQHCFGHWPLDATFRAVLEMWLSYLQPWRYAPEKQAQGSDPQPRCVSEKWAPFIQENLLMYTKLFVSFLNRALRTDLVSPKNALMVFRVAKVFAQPNLAEMIQKGEQLFLEPELIIPHRQHRLFTVTTSFLSPWPPVVTDASFKVKSHVYSLEGQDCKYTPMFGPEIRTLVLRLAQLITQAKQTAKSISDQYVESPTGRSFLSWLTFGLTDTNSCYPANDLDEIGQDSIRKTDEYLEKALEYLRQIFRLSEAQLAQLTLALGSARDENGKQQLPDCIVGEEGLILTPLGRYQIINGLRRFEIEYQGDLELQPIRSYEITSLVRALFRLSSAINRRFAGQMAALCSRNDFLGSFCRYHLTEPALSNRHLLSPVGRRQVTNPARGPRLSLRFLGSYRTLLLLLMAFFVASLFCIGPLSCSLLLVLGYVLYAIAMTLLTERGKLHQL
B8: Lpcat1 (protein, UniProt Q3TFD2 1-534)
chain: MRLRGRGPRAAPSSSSGAGDARRLAPPGRNPFVHELRLSALQKAQVAFMTLTLFPIRLLFAAFMMLLAWPFALLASLGPPDKEPEQPLALWRKVVDFLLKAIMRTMWFAGGFHRVAVKGRQALPTEAAILTLAPHSSYFDAIPVTMTMSSIVMKAESRDIPIWGTLIRYIRPVFVSRSDQDSRRKTVEEIKRRAQSNGKWPQIMIFPEGTCTNRTCLITFKPGAFIPGVPVQPVVLRYPNKLDTITWTWQGPGALKILWLTLCQFQNQVEIEFLPVYCPSEEEKRNPALYASNVRRVMAKALGVSVTDYTFEDCQLALAEGQLRLPADTCLLEFARLVRGLGLKPENLEKDLDKYSESARMKRGEKIRLPEFAAYLEVPVSDALEDMFSLFDESGGGEIDLREYVVALSVVCRPSQTLATIQLAFKMYGSPEDGSIDEANLSCILKTALGVSELTVTDLFQAIDQEDKGRITFDDFCGFAEMYPDYAEDYLYPDQTHFDSCAQTPPAPTPNGFCIDFSPENSDFGRKNSCKKAD
B9: H13 (protein, UniProt Q9D8V0 1-378)
chain: MDSAVSDPHNGSAEAGTPANGTTRPPSTPEGIALAYGSLLLMALLPIFFGALRSVRCARGKSSSDMPETITSRDAARFPIIASCTLLGLYLFFKIFSQEYINLLLSMYFFVLGILALSHTISPFMNKFFPANFPNRQYQLLFTQGSGENKEEIINYEFDTKDLVCLGLSSVVGVWYLLRKHWIANNLFGLAFSLNGVELLHLNNVSTGCILLGGLFIYDIFWVFGTNVMVTVAKSFEAPIKLVFPQDLLEKGLEADNFAMLGLGDIVIPGIFIALLLRFDISLKKNTHTYFYTSFAAYIFGLGLTIFIMHIFKHAQPALLYLVPACIGFPVLVALAKGEVAEMFSYEESNPKDPAAETESKEESTEASASKRLEKKEK
B10: Stt3b (protein, UniProt Q3TDQ1 1-823)
chain: MAEPSAPESKHKSSLNSSPWSGLMALGNSRHGHHGPGTQSASSAAAPKPGPPAGLSGGLSQPAGWQSLLSFTILFLAWLAGFSSRLFAVIRFESIIHEFDPWFNYRSTHHLASHGFYEFLNWFDERAWYPLGRIVGGTVYPGLMITAGLIHWILNTLNITVHIRDVCVFLAPTFSGLTSISTFLLTRELWNQGAGLLAACFIAIVPGYISRSVAGSFDNEGIAIFALQFTYYLWVKSVKTGSVFWTMCCCLSYFYMVSAWGGYVFIINLIPLHVFVLLLMQRYSKRVYIAYSTFYIVGLILSMQIPFVGFQPIRTSEHMAAAGVFALLQAYAFLQYLRDRLTKQEFQTLFFLGVSLAAGAVFLSVIYLTYTGYIAPWSGRFYSLWDTGYAKIHIPIIASVSEHQPTTWVSFFFDLHILVCTFPAGLWFCIKNINDERVFVALYAISAVYFAGVMVRLMLTLTPVVCMLSAIAFSNVFEHYLGDDMKRENPPVEDSSDEDDKRNPGNLYDKAGKVRKHVTEQEKPEEGLGPNIKSIVTMLMLMLLMMFAVHCTWVTSNAYSSPSVVLASYNHDGTRNILDDFREAYFWLRQNTDEHARVMSWWDYGYQIAGMANRTTLVDNNTWNNSHIALVGKAMSSNETAAYKIMRSLDVDYVLVIFGGVIGYSGDDINKFLWMVRIAEGEHPKDIREGDYFTQQGEFRVDKAGSPTLLNCLMYKMSYYRFGEMQLDFRTPPGFDRTRNAEIGNKDIKFKHLEEAFTSEHWLVRIYKVKAPDNRETLGHKPRVTNIVPKQKYLSKKTTKRKRGYVKNKLVFKKGKKTSKKTV
B11: Myl12a (protein, UniProt Q6ZWQ9 1-172)
chain: MSSKRAKTKTTKKRPQRATSNVFAMFDQSQIQEFKEAFNMIDQNRDGFIDKEDLHDMLASMGKNPTDEYLDAMMNEAPGPINFTMFLTMFGEKLNGTDPEDVIRNAFACFDEEAIGTIQEDYLRELLTTMGDRFTDEEVDELYREAPIDKKGNFNYIEFTRILKHGAKDKDD

Target: FLAG-STING, in reconstituted Sting-/- MEFs (mouse)
Assay: affinity purification with mass spectrometry

Row | binding | Binder
1 | binds | B1
2 | binds | B2
3 | binds | B3
4 | binds | B4
5 | binds | B5
6 | binds | B6
7 | binds | B7
8 | binds | B8
9 | binds | B9
10 | binds | B10
11 | binds | B11
